Reference: PubChem BioAssay AID1224826 (NIAID, 2016)

Aim: 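Genes that change LPS-induced Tnf promoter activity in mouse macrophages when knocked down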 (primary screen)
Cells: RAW264.7 G9 macrophages from mouse bearing reporters for p65 (GFP) and the Tnf promoter (mCherry)
Reagent: siRNA pool against mouse genes, 100 nM
Timing: 16 h of LPS stimulation, after 2 days of siRNA transfection
Treatment: bacterial lipopolysaccharide (Salmonella minnesota R595), 10 ng/ml
Read-out: 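Nuclear mCherry signal of the Tnf promoter reporter measured by imaging after background removal, scaled to each plate median and turned into robust z-scores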
Reading the numbers: Tnf reporter robust z-score: higher = stronger Tnf promoter reporter signal after LPS
Rule for the call: 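Called active when robust z-score is at most -1.3, matching the median of the Tlr4 knock-down control, or over 3; control wells and wells with under 50 cells never active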
Meaning of the calls: active = Tnf reporter clearly lowered or raised; inactive = no clear change in Tnf reporter
The deposit covers about 17,000 reagents; below is an unselected part. Of all reagents, about 1,110 (6.6%) got an active call. 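Active means lowered or raised reporter signal; replicate intensities are raw and not normalised per plate.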 Entries without a mark were called inactive. Further read-outs or replicates are left out here. No sequences are given here.

Rcl1
- Tnf reporter robust z-score: 2.03
- fewer than 50 cells in well: enough cells in well

Prkar1b
- Tnf reporter robust z-score: -0.64
- fewer than 50 cells in well: enough cells in well

Cep104
- Tnf reporter robust z-score: 0.65
- fewer than 50 cells in well: enough cells in well

Arih2
- Tnf reporter robust z-score: -0.09
- fewer than 50 cells in well: enough cells in well

Tas2r110
- fewer than 50 cells in well: fewer than 50 cells per well; well left out of calls

Pde5a
- Tnf reporter robust z-score: -0.55
- fewer than 50 cells in well: enough cells in well

Rps29
- Tnf reporter robust z-score: -1.32 (active)
- fewer than 50 cells in well: enough cells in well

Or8k23
- Tnf reporter robust z-score: 0.14
- fewer than 50 cells in well: enough cells in well

Entries above with an active call:
Rps29
- Tnf reporter robust z-score: -1.32 (active)
- fewer than 50 cells in well: enough cells in well

Additional reagents follow:
Rel
- Tnf reporter robust z-score: 0
- fewer than 50 cells in well: enough cells in well

Kdm4d
- fewer than 50 cells in well: fewer than 50 cells per well; well left out of calls

Cnih3
- fewer than 50 cells in well: fewer than 50 cells per well; well left out of calls

Ooep
- Tnf reporter robust z-score: -0.55
- fewer than 50 cells in well: enough cells in well

Cpa4
- Tnf reporter robust z-score: 0.4
- fewer than 50 cells in well: enough cells in well

Rab14
- Tnf reporter robust z-score: 1.21
- fewer than 50 cells in well: enough cells in well
